Measurements from PMC4745767.
Results are given in words; binding and its absence hold for the method and conditions named. In cells and extracts the contact can be indirect. Some results given as binding are weak or reduced against the parent protein; the word gives no strength.

Chains of the proteins cited; added tags and fusions are not shown.
UniProt Q92597: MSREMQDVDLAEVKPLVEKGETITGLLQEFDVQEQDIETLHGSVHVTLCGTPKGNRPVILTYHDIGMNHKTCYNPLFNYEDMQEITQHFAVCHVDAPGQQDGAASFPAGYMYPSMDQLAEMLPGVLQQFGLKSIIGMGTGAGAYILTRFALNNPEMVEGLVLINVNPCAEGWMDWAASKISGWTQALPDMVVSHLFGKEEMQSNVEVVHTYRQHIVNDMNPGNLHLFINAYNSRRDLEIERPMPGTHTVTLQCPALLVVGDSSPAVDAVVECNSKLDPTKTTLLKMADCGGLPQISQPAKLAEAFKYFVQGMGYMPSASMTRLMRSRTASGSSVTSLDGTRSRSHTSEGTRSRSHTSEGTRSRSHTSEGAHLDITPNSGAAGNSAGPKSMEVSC
UniProt P49841: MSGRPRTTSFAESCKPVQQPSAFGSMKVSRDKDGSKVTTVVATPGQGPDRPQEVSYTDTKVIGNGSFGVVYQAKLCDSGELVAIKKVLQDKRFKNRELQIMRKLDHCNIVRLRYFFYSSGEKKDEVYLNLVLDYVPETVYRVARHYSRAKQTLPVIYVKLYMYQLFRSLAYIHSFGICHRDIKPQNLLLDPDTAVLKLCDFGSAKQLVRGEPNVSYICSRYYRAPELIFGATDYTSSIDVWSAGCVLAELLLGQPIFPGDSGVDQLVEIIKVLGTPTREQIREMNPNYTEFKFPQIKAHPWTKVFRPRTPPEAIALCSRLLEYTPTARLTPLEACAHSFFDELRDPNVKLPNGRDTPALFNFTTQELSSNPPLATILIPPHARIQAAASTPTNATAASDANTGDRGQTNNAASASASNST

Experiments:
[1] = target: N-myc downstream regulated gene 1 (NDRG1), endogenous in HCC cells (human (endogenous in Huh7, HepG2, Hep3B)) (UniProt Q92597); experiment: co-IP; tumor lysates of Hep3B and HepG2 xenografts (control shRNA or NDRG1 shRNA) from nude mice; endogenous proteins
[2] = target: N-myc downstream regulated gene 1 (NDRG1), endogenous in HCC cells (human (endogenous in Huh7, HepG2, Hep3B)) (UniProt Q92597); experiment: co-IP; 500 μg cell lysate, 2 μg anti-NDRG1 antibody, protein A/G PLUS-agarose, 4°C; endogenous proteins in Huh7, HepG2, Hep3B; cells under normoxia or hypoxia (0.5% O2)

Which binding [1] does the source give for “glycogen synthase kinase 3β (GSK-3β), endogenous in HCC cells (from UniProt P49841 1-420) (enzyme)” here?
The binding was “binds”.

What about the binding [2] of the same substance?
The binding was “binds”.
